{"source": "PubChem BioAssay AID504834", "about": "(National Center for Advancing Translational Sciences (NCATS), 2011)", "note": "The whole screen tested about 320,000 compounds, of which about 22,000 (6.9%) were called active. Inconclusive means that the source gave no clear call. Such entries were picked first, then a sample of the others. The call rests on the fitted dose curve; in most records, active means well fitted inhibition curve with a large enough effect; inconclusive means small, poorly fitted or top-dose-only effect, or another doubt; inactive means no such curve, though single readings can be large or run the other way. A potency beside an inconclusive call is a rough fit, not a confirmed value. On the % scale 0 is the no-effect control and ±100 the full control effect; potency means the concentration at half of the fitted maximal effect.", "data": [{"test": "Primary qHTS for delayed death inhibitors of the malarial parasite plastid, 96 hour incubation", "conditions": "P. falciparum luciferase reporter growth; series mostly up to 28.7 µM; activity change, negative = inhibition: at the top concentration", "in_short": "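Delayed-death screen, second-generation endpoint: infected erythrocytes, 2% hematocrit, 0.05% parasitemia final; 96 hours at 37 C, 5% CO2; luciferase detection reagent; luminescence decrease equals reduced growth.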", "values": [{"smiles": "CCn1cc([N+](=O)[O-])c(C(=O)N2N=C(c3ccc(O)c(OC)c3)CC2c2ccccc2O)n1", "note": "(centres undefined)", "Potency": "active: 14.7 µM"}, {"smiles": "COC(=O)C(CCSC)NC(=O)c1cc2c(n(-c3ccccc3)c1=O)CC(C)(C)CC2=O", "note": "(centres undefined)", "Potency": "active: 3.7 µM"}, {"smiles": "CCn1c(C)cc(/C=C2\\NC(=O)N(CC(=O)Nc3cccc(C)c3)C2=O)c1C", "Potency": "inconclusive: 10.4 µM [inhibitor, partial curve, poor fit]"}, {"smiles": "CCc1ccc(NC(=O)CCc2nnc3ccc(N4CCCC4)nn23)cc1", "activity change, negative = inhibition": "inactive: -22.1%"}, {"smiles": "CC1CCCC(C)N1C(=O)COC(=O)CNC(=O)c1ccccc1", "note": "(centres undefined)", "Potency": "inconclusive: 14.7 µM [inhibitor, partial curve, poor fit]"}, {"smiles": "CCOC(=O)C1=C(CC)Nc2ccccc2N=C1NC(=O)c1oc2ccccc2c1C", "Potency": "inconclusive: 18.5 µM [inhibitor, single point]"}, {"smiles": "O=C(CSc1ccc2nnc(CCNC(=O)c3ccccc3)n2n1)NC1CCCC1", "Potency": "inconclusive: 11.7 µM [inhibitor, single point]"}, {"smiles": "COc1ccc(C(CNC(=O)COc2ccccc2-c2ccccc2)N2CCOCC2)cc1", "note": "(centres undefined)", "Potency": "inconclusive: 18.5 µM [inhibitor, single point]"}, {"smiles": "Cc1c(Cl)cccc1NC(=S)NCC(c1cccnc1)N(C)C", "note": "(centres undefined)", "Potency": "inconclusive: 2.62 µM [inhibitor, partial curve, poor fit]"}, {"smiles": "CC(=O)Nc1ccc(NC(=O)COC(=O)c2ccccc2SCC(=O)N2CCCC2)cc1", "Potency": "inconclusive: 5.86 µM [inhibitor, partial curve, poor fit]"}, {"smiles": "COc1ccc2[nH]cc(C(=O)N3CCCCC3)c(=O)c2c1", "Potency": "inconclusive: 7.38 µM [inhibitor, partial curve, poor fit]"}, {"smiles": "COc1ccc(-c2cc(CNS(=O)(=O)c3ccc(NC(C)=O)cc3)on2)cc1", "Potency": "inconclusive: 0.738 µM [inhibitor, full curve, poor fit]"}, {"smiles": "CC(C)C(=O)NC(C)C(c1cccs1)N1CCOCC1", "note": "(centres undefined)", "Potency": "inconclusive: 6.57 µM [inhibitor, partial curve, poor fit]"}, {"smiles": "CCN1CCCC1CNC(=O)Cn1cnc2sc(C)c(S(=O)(=O)N3CCC(C)CC3)c2c1=O", "note": "(centres undefined)", "Potency": "active: 6.57 µM"}, {"smiles": "O=C(COC(=O)c1c2c(nc3ccccc13)CCCC2)c1ccc(Br)s1", "Potency": "inconclusive: 18.5 µM [inhibitor, single point]"}, {"smiles": "CN(CC(=O)Nc1ccc(F)cc1)C(=O)COC(=O)c1cccc(N(C)C)c1", "activity change, negative = inhibition": "inactive: 299%"}, {"smiles": "CC(C)(C)NC(=O)Cn1nnc(-c2ccc(Cl)cc2)n1", "Potency": "inconclusive: 13.1 µM [inhibitor, single point]"}, {"smiles": "CC1CC(C)CN(C(=O)C(NS(=O)(=O)c2ccc(Br)s2)c2ccccc2)C1", "note": "(centres undefined)", "activity change, negative = inhibition": "inactive: 58.4%"}, {"smiles": "C=CCNCc1cc(=O)n2c(-c3ccccc3)csc2n1", "activity change, negative = inhibition": "inactive: 2.66%"}, {"smiles": "C/C(N)=C(/C#N)C(=O)CSc1nc2ccccc2c(=O)n1CCCOC(C)C", "Potency": "inconclusive: 18.5 µM [inhibitor, single point]"}, {"smiles": "Cc1cc(NC(=O)c2cccs2)ncc1NC(=O)C(C)C", "Potency": "active: 2.33 µM"}, {"smiles": "O=C(CSc1ccc(Br)cc1)Nc1ccccc1N1CCOCC1", "Potency": "inconclusive: 3.29 µM [inhibitor, full curve, poor fit]"}, {"smiles": "O=C(COC(=O)c1cnccn1)c1ccc(Cl)c([N+](=O)[O-])c1", "activity change, negative = inhibition": "inactive: 28.3%"}, {"smiles": "O=C(COc1ccc(F)cc1)Nc1ccc(S(=O)(=O)Nc2ncccn2)cc1", "activity change, negative = inhibition": "inactive: 18.4%"}, {"smiles": "CCc1nc(Cl)c(C#N)c2c1CSC(C)(C)C2", "activity change, negative = inhibition": "inactive: 14.2%"}, {"smiles": "O=C(Nc1ccncc1)c1ccc(S(=O)(=O)Nc2ccccc2)cc1", "Potency": "inconclusive: 14.7 µM [inhibitor, single point]"}, {"smiles": "O=C(c1ccccc1)n1c(=S)nc2ccccn21", "activity change, negative = inhibition": "inactive: 4.94% [at 5.75 µM]"}, {"smiles": "Cc1nn(CC(=O)NC2C(=O)N3C(C(=O)O)=C(CSc4nnnn4C)CSC23)cc1Br", "note": "(centres undefined)", "activity change, negative = inhibition": "inactive: 41.6%"}, {"smiles": "Cc1noc(/C=C/c2ccccc2F)c1S(=O)(=O)N1CCC(C(=O)N2CCN(C)CC2)CC1", "activity change, negative = inhibition": "inactive: -19.7%"}, {"smiles": "Nc1nc2ccc(Cc3ccncc3)cc2s1", "activity change, negative = inhibition": "inactive: 93.5%"}, {"smiles": "COC(=O)c1ccc(C(=O)OC)c(NC(=O)C(C)(C)C)c1", "activity change, negative = inhibition": "inactive: 5.13% [at 5.75 µM]"}, {"smiles": "Cn1c(=O)c2c(ncn2CC(=O)OCC(=O)Nc2cc(Cl)ccc2Cl)n(C)c1=O", "activity change, negative = inhibition": "inactive: 0%"}, {"smiles": "Cc1cccn2c(Nc3ccccc3)c(-c3ccccn3)nc12", "Potency": "inconclusive: 1.47 µM [inhibitor, full curve, poor fit]"}, {"smiles": "O=C(CCc1[nH]c2ccccc2c1Sc1ccccc1)NCCO", "Potency": "inconclusive: 0.928 µM [inhibitor, partial curve, poor fit]"}, {"smiles": "Cn1c(SC(C(=O)Nc2ccc(F)cc2)c2ccccc2)nc2ccccc21", "note": "(centres undefined)", "Potency": "inconclusive: 18.5 µM [inhibitor, single point]"}, {"smiles": "COc1ccc2nc(-c3ccccc3)cc(C(=O)OCC(=O)N3CCCCC3)c2c1", "Potency": "inconclusive: 18.5 µM [inhibitor, single point]"}, {"smiles": "O=C(CSc1nnc(-c2ccc(Cl)cc2)n1Cc1ccco1)Nc1ccc2c(c1)OCCO2", "Potency": "inconclusive: 18.5 µM [inhibitor, single point]"}, {"smiles": "CCCNC(=O)c1c(N)n(Cc2ccc3c(c2)OCO3)c2nc3ccccc3nc12", "activity change, negative = inhibition": "inactive: -2.09% [at 5.75 µM]"}, {"smiles": "CCOC(=O)C1=C(N)n2c(s/c(=C\\c3ccco3)c2=O)=C(C(=O)OC(C)C)C1c1ccco1", "note": "(centres undefined)", "Potency": "inconclusive: 10.4 µM [inhibitor, single point]"}, {"smiles": "CC(C)(C)NC(=O)CC(CC(=O)O)c1ccccc1", "note": "(centres undefined)", "Potency": "inconclusive: 16.5 µM [inhibitor, single point]"}, {"smiles": "COc1cc2c3nnc(-c4ccccc4)c-3cn(Cc3ccc(F)cc3)c2cc1OC", "Potency": "inconclusive: 2.62 µM [inhibitor, full curve, poor fit]"}, {"smiles": "COc1ccc(NC(=O)C2CCCN2S(=O)(=O)c2ccc(F)cc2)cc1", "note": "(centres undefined)", "Potency": "inconclusive: 16.5 µM [inhibitor, partial curve, poor fit]"}, {"smiles": "Cc1cccc(CN2CCN(CC(=O)N3CCCC3)C2=O)c1", "Potency": "inconclusive: 18.5 µM [inhibitor, single point]"}, {"smiles": "Cc1ccc(C(C)C)cc1NC(=O)Nc1ccc([N+](=O)[O-])cc1", "Potency": "active: 3.29 µM"}]}]}
